Experimental data reported in patent US6723527B2, “Methods for determining toxicity reversing agents” (Board of Regents, The University of Texas System, priority 2001, dated 2004).

System: human peripheral blood lymphocytes
Assay: lymphocyte growth inhibition assay ([3H]-thymidine incorporation) in chemically defined medium
Type: cell-based
Settings: at 0.1 μg/ml
Description: The medium is also described in the specification above. Various concentrations of amino acids can be used in the medium to determine the effect on growth or growth inhibition.
Human peripheral blood was collected from a group of patients in the clinic. […] Experiments were conducted in 96 well microtite plates. Triplicate samples were run in all experiments. […] For reversal of toxicity CoQ10 was added at a concentration of 0.5 μg/ml, and the patient's own plasma at a concentration of 0.1%. All chemicals were obtained from Sigma Chemical Corporation. […] Cells were then pulsed with 10 μl [^3H]-thymidine (0.29×10^-6M final concentration; specific activity […]). Twenty-four hours later, cells were harvested using an Inotech Cell Harvester. Radioactive incorporation was measured using a Packard Matrix 96 Beta Counter.

CC(C)c1c(C(=O)Nc2ccccc2)c(-c2ccccc2)c(-c2ccc(F)cc2)n1CC[C@@H](O)C[C@@H](O)CC(=O)O [Lipitor, Atorvastatin]
toxicity / inhibition of growth or other response of lymphocytes: extremely toxic to most subjects
